From PubChem BioAssay AID1347140 (National Center for Advancing Translational Sciences (NCATS), 2019)
The shares of active, inactive and inconclusive entries below differ from those in the screen. Where a call stands in place of a potency, no number is given. Potencies beside an inconclusive call are fits to weak or partial responses and may not hold up. Calls of active or inactive are those of the source. The call rests on the fitted dose curve; in most records, active means well fitted inhibition curve with a large enough effect; inconclusive means small, poorly fitted or top-dose-only effect; inactive means no such curve, though single readings can be large or run the other way.

Experiment: qHTS of pediatric cancer cell lines to identify multiple opportunities for drug repurposing: Orthogonal 3D viability screen for MG 63 (6-TG R) cells
Excerpt: Drug repurposing or repositioning has been offered as a strategy for drug development in oncology programs. This approach has special potential for childhood cancers and other rare or orphan diseases, where the expected return on new drug development has been a disincentive to pharmaceuticals. […] In this project we exploit the poly-pharmacology of drugs to discover new indications via phenotypic screening of a panel of 19 well-characterized cell lines derived from solid tumors seen in children and adolescents. The goal is to identify approved drugs with previously unrecognized anticancer properties that has the potential to reveal new mechanisms and biological processes involved in carcinogenesis or drug resistance. We employed a titration-based paradigm (quantitative high-throughput screening or qHTS), where all compounds were tested at multiple concentrations for their effect on cell viability. […] Assay Submitter: Nathalia J. Martinez, National Center for Advancing Translational Sciences, National Institutes of Health, Rockville, MD, USA; email: natalia.martinez@nih.gov Shen, M et al. Quantitative high-throughput phenotypic screening of pediatric cancer cell lines identifies multiple opportunities for drug repurposing. […]

Compound | Potency
C[C@@H]1C[C@@H]([C@H](O)CC2CC(=O)NC(=O)C2)C(=O)[C@@H](C)C1 | inconclusive: 57.4 nM [inhibitor, full curve]
COC(=O)C1=CCCN(C)C1 | inactive
